Measurements published in paper PMC12212138.

Amino acid sequences for entries named in this document (tags omitted). Residues count along the entry.
UniProt Q9UKK3, 1-100: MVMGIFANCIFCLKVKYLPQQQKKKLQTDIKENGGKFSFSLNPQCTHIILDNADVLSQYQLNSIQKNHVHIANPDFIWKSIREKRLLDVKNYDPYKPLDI
UniProt Q9UKK3, 1-573: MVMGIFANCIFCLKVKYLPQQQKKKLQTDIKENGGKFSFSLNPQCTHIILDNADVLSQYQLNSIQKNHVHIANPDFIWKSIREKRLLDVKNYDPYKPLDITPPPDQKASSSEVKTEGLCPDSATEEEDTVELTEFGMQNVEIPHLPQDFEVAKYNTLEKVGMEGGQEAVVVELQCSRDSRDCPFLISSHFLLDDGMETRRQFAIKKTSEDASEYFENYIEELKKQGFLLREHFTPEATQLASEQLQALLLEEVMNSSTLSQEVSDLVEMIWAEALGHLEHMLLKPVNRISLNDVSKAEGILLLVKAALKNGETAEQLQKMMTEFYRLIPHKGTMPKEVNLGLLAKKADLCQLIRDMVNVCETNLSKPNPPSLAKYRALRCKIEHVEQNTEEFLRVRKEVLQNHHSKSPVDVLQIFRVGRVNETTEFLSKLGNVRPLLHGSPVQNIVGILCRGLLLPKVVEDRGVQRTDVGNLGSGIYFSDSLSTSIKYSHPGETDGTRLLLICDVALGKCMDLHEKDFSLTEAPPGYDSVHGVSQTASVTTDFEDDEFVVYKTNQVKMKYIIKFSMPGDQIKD

How the values were obtained:
[1] = molecular target: PARP4 BRCT WT (human) (UniProt Q9UKK3); experiment: FP; conditions: 3 nM probe; FP: 50 mM Tris pH 7.5, 50 mM NaCl, 1 mM MgCl2, 0.05% NP40, 2 mM DTT, 5% glycerol, 25 ug/ml BSA, room temp 30 min; recombinant protein; residues 1-100; protein details: N-terminal His-SUMO removed by TEV; label: 5'-6-FAM; folded or branched DNA
[2] = molecular target: PARP4 BRCT WT (human) (UniProt Q9UKK3); experiment: EMSA; conditions: 20 nM probe; EMSA: 50 mM Tris pH 7.5, 50 mM NaCl, 4% Ficoll PM400, 0.05% NP40, 2 mM DTT, 0-18 uM protein, room temp 30 min, gel at 4 C; recombinant protein; residues 1-100; protein details: N-terminal His-SUMO removed by TEV; label: 5'-6-FAM; folded or branched DNA
[3] = molecular target: PARP4 BRCT-WGR-CAT WT (human) (UniProt Q9UKK3); experiment: EMSA; conditions: 20 nM probe; EMSA: 50 mM Tris pH 7.5, 50 mM NaCl, 4% Ficoll PM400, 0.05% NP40, 2 mM DTT, 0-18 uM protein, room temp 30 min, gel at 4 C; recombinant protein; residues 1-573; protein details: N-terminal His-SUMO removed by TEV; label: 5'-6-FAM on strand 1

Sequence	Kd [1]	Kd [2]	Kd [3]
GGCTGGCTTTAGCTCAGCGGTTACTTCGCGTGTCATCAAACCACCTCTCTGGGTTGTTCGAGACCCGCGGGCGCTCTCCAGCCCTCTT [vtDNA1-3]	10 µM	0.5 µM	–
GGCUGGCUUUAGCUCAGCGG / CCGCGGGCGCUCUCCAGCCCUCUU [Probe 1]	–	–	11 µM

For at least one entry, the source does not settle the construct or the ends of the probe.
